Measurements as given in patent US6673587.
No constants are given. Whether binding was seen depends on the method and setting. Some results given as binding are weak or reduced against the parent protein; the word gives no strength.

The chains behind the UniProt entries cited, without tags or fusion partners. Where a name states a change or a piece, a line headed by the entry shows the natural chain unless it says otherwise.
UniProt P04386: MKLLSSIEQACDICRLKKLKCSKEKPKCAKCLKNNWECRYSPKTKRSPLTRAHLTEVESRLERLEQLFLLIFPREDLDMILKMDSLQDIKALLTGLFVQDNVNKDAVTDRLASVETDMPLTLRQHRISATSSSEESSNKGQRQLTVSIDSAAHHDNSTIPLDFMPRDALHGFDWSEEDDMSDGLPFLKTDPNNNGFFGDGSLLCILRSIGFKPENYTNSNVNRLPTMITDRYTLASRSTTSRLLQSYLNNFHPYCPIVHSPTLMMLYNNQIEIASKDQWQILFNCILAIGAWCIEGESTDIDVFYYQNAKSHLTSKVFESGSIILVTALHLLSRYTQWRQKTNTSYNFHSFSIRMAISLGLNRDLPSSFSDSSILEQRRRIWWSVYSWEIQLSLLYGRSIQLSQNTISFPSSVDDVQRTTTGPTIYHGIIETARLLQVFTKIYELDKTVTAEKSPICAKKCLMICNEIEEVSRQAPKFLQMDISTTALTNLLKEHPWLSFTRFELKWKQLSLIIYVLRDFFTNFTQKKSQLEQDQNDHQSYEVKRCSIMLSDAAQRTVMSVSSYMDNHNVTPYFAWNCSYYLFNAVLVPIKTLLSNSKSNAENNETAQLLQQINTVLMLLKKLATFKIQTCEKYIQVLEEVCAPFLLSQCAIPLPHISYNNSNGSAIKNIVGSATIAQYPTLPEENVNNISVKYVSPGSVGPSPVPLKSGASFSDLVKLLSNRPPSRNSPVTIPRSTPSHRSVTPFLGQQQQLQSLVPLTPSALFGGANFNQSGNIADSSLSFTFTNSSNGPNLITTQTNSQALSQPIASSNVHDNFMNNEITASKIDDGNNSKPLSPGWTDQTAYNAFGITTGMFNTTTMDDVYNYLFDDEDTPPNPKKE
UniProt Q9Y618: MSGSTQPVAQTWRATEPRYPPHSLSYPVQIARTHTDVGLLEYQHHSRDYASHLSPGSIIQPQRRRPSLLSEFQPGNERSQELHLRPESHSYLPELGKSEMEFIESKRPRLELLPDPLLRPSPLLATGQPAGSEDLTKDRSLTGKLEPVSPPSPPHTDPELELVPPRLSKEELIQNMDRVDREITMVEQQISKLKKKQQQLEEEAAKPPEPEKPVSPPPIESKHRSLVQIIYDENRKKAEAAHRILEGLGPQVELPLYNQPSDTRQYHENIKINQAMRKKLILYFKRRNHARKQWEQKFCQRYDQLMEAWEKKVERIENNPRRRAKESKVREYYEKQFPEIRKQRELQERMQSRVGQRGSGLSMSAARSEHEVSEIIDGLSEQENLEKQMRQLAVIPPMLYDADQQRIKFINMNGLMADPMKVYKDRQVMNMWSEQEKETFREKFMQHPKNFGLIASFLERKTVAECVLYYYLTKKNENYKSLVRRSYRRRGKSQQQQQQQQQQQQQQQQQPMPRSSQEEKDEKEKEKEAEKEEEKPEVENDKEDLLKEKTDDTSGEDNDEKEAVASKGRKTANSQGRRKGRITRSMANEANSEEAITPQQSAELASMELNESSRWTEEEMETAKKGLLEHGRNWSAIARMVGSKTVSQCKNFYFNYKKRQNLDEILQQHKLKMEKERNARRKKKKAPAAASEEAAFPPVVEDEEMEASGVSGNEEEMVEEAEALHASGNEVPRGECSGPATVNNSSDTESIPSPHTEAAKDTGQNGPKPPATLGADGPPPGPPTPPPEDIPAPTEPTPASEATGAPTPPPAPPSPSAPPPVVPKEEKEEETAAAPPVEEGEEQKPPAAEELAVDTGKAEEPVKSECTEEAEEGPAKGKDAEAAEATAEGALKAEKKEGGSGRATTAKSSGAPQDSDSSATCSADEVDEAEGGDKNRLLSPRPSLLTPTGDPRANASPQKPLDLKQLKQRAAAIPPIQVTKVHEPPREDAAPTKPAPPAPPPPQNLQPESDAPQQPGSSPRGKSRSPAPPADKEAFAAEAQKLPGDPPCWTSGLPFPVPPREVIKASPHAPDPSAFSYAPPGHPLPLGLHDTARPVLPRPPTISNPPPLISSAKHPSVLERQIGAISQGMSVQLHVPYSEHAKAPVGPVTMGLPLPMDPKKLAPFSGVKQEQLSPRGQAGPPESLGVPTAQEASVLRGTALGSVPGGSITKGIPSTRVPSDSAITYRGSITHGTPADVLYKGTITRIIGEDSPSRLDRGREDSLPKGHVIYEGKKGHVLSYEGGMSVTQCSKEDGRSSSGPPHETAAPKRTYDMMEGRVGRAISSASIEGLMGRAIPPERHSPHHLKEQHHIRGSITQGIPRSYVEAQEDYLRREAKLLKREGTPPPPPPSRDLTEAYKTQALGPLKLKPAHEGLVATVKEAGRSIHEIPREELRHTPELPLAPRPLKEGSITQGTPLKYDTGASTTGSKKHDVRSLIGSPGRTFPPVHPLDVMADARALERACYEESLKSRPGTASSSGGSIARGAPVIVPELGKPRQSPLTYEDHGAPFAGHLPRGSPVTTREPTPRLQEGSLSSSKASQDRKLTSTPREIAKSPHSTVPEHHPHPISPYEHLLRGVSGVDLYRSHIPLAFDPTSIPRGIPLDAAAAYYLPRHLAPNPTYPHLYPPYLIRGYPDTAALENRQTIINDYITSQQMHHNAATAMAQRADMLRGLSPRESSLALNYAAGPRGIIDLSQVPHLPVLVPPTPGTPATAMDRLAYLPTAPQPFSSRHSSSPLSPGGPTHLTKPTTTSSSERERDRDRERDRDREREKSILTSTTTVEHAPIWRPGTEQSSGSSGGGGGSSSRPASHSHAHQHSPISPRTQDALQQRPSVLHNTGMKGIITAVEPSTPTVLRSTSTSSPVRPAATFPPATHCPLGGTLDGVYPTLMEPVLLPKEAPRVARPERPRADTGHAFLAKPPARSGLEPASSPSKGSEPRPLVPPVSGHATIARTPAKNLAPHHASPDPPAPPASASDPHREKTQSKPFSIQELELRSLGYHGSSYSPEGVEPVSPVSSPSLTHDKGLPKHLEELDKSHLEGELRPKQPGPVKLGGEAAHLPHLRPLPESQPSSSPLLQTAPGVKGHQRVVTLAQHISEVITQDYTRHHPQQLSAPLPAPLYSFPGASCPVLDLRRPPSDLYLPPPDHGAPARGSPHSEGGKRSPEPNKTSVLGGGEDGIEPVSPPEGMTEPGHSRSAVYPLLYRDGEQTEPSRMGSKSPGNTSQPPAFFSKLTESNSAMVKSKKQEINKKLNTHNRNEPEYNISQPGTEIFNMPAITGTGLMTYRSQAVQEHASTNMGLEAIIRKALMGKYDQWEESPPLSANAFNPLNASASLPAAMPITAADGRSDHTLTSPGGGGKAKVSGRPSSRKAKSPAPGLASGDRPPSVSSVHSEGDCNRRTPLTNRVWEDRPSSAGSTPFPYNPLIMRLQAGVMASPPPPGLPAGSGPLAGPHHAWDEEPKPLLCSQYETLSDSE
UniProt Q8C2B3: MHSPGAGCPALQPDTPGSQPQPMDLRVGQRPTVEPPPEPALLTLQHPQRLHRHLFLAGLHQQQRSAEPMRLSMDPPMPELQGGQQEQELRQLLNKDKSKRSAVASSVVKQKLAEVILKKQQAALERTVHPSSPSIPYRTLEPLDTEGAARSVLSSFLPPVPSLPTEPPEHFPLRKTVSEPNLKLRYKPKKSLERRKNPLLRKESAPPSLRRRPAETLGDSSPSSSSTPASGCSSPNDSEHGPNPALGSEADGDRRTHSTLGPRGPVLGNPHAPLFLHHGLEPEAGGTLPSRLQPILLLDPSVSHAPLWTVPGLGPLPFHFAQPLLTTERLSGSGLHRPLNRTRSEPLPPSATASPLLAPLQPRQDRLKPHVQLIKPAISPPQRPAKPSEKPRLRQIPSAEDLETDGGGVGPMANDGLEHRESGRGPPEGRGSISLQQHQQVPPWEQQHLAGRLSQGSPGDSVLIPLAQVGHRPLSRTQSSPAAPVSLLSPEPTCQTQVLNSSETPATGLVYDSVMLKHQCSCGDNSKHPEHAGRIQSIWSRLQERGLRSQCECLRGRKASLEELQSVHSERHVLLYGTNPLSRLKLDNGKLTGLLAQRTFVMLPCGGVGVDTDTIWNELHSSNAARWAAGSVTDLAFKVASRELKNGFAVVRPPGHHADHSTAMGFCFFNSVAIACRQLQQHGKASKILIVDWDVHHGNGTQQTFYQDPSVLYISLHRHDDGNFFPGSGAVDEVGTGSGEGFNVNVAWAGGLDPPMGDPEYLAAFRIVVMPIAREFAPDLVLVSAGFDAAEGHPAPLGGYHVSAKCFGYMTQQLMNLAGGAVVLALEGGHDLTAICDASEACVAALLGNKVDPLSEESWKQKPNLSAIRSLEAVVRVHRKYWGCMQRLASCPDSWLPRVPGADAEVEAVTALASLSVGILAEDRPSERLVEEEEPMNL

Tests used:
[1] = molecular target: T1, GAL DBD-SMRT (RD III+IV), pGBT9-hSMRT (1060-1831) (human) (UniProt P04386+Q9Y618); assay: yeast two-hybrid, growth on -Trp-Leu-His+40 mM 3-AT plates
[2] = molecular target: T1, GAL DBD-SMRT (RD III+IV), pGBT9-hSMRT (1060-1831) (human); assay: yeast two-hybrid, liquid beta-galactosidase assay
[3] = molecular target: T1, GAL DBD-SMRT (RD III+IV), pGBT9-hSMRT (1060-1831) (human); assay: yeast two-hybrid screen with pGBT9-hSMRT (1060-1831) as bait
[4] = molecular target: T1, GAL DBD-SMRT (RD III+IV), pGBT9-hSMRT (1060-1831) (human); assay: yeast two-hybrid

- binding [1]: binds
- binding [2]: binds
- binding [3]: binds
- binding [4]: binds
Substance: mHDAC7 clone 23C, C-terminal sequence of mHDAC7 (GAL AD fusion) (from UniProt Q8C2B3 500-938) (enzyme)
